From patent US7557215B2, “Anthraquinone compounds as anti cancer compounds” (Somanta Limited, priority 2003, dated 2009)
Some results were stated once for a whole list of compounds, not compound by compound. At least one compound was matched to its structure with a doubt left.

Test system: A2780
Test: Inhibition of cell growth, A2780 wild type ovarian carcinoma cell line

With `C[N+](C)([O-])CCNc1ccc(NCC[N+]2([O-])CCCC2CO)c2c1C(=O)c1c(O)ccc(O)c1C2=O` (stereo not shown) [HAQ132N, 1-{[2-(2-Hydroxymethylpyrrolidin-1-yl-N-oxide)ethyl]amino}-4-{[(2-dimethylamino-N-oxide)ethyl]amino}-5,8-dihydroxy-anthracene-9,10-dione] the “fold less cytotoxic than amine counterpart” value was “more than 1000 fold”.
